Experimental data taken from PubChem BioAssay AID720504 (National Center for Advancing Translational Sciences (NCATS), 2013).
Screen size: about 360,000 compounds; about 10,000 (2.8%) were called active. The shares of active, inactive and inconclusive entries below differ from those in the screen. Calls come from the whole dose curve; as a rule, active = well fitted inhibition curve with a large enough effect; inconclusive = small, poorly fitted or top-dose-only effect; inactive = flat fitted curve, though single readings scatter. Potencies beside an inconclusive call are fits to weak or partial responses and may not hold up.

Amino acid sequences for entries named in this document (tags omitted).
UniProt P53350, whole entry, looked up: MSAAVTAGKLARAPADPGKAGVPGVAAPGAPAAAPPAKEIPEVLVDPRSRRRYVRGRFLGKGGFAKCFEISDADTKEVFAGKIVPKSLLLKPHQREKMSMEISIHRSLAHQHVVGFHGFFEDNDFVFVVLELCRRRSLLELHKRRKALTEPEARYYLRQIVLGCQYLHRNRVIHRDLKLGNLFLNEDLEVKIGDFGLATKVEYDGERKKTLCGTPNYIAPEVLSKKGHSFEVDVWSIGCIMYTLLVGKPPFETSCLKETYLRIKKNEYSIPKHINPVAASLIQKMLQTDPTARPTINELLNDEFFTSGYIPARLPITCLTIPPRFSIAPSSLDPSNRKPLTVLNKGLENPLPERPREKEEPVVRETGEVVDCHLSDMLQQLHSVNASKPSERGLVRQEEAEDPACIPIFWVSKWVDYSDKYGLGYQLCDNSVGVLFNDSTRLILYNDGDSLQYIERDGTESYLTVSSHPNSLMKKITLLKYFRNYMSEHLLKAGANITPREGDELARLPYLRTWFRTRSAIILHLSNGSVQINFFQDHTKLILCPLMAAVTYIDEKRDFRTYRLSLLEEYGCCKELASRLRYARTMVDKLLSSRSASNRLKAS

These compounds were tested against Serine/threonine-protein kinase PLK1 (Homo sapiens) (UniProt P53350) (assay: qHTS for Inhibitors of PLK1-PDB (polo-like kinase 1 - polo-box domain): Primary Screen). Conditions: Plk1 PBD binding of FITC phosphopeptide, fluorescence polarization.
% is set by controls: 0 for no effect and ±100 for the full control effect; potency is the fitted concentration of half-maximal effect.
Note: nearly all actives have a fitted effect of over 65% in size.
Throughout, for max response, negative = inhibition: series mostly up to about 57 µM.

Structure (SMILES) | max response, negative = inhibition | Potency
Cc1n[nH]c(C)c1Cc1c(F)cccc1Cl | inactive: -22.8% | 
COC(=O)c1ccc(Cn2nc(C)cc2C)cc1 |  | inconclusive: 37.7 µM [inhibitor, single point]
COc1ccc(C(=O)C2CCCN(C/C=C/c3ccccc3OC)C2)c(OC)c1 (stereo not given) | inactive: -7% | 
O=C(NS(=O)(=O)c1ccc2ccc(S(=O)(=O)NCCSc3ccccc3)cc2c1)c1cccc2ccccc12 |  | inconclusive: 37.7 µM [inhibitor, single point]
CCOCC(=O)Nc1ncc(S(=O)(=O)c2ccc([N+](=O)[O-])cc2)s1 |  | inconclusive: 21.2 µM [inhibitor, single point]
O=S(=O)([O-])CCC[n+]1c(SCCCS(=O)(=O)O)sc2ccc(Cl)cc21 |  | inconclusive: 7.52 µM [inhibitor, partial curve]
C#CCOCCOCCOCCNc1nc(N2CCOCC2)nc(N2CCN(C(=O)[C@H](Cc3ccc(O)cc3)n3cc([C@@H](N)C(C)CC)nn3)CC2)n1 (stereo not given in full) |  | inconclusive: 37.7 µM [inhibitor, partial curve]
CCOC(=O)c1c(/N=C/c2ccccc2O)sc2c1CCC2 |  | inconclusive: 29.9 µM [inhibitor, single point]
O=C(NC(=S)Nc1nc2c(s1)CCCC2)c1ccccc1 | inactive: -17.5% | 
Cc1csc(-c2nc3ccccc3n2C(C)c2nc3ccccc3[nH]2)c1 (stereo not given) | inactive: -12.4% | 
NC(=O)Cn1c(=O)n(Cc2ccco2)c(=O)c2c3c(sc21)CCCCC3 |  | inconclusive: 26.7 µM [inhibitor, single point]
O=C(CN1C(=O)C2CCCCC2C1=O)Nc1nc(-c2ccccn2)cs1 (stereo not given) |  | active: 23.8 µM
CO/N=C/c1c(C(=O)OC)nn(-c2ccccc2)c1Cl |  | active: 3.77 µM
CCOC(=O)C(=CNNc1ccccc1)C(=O)OCC |  | inconclusive: 5.97 µM [inhibitor, partial curve]
CCN1C(=O)[C@H]2[C@@H](c3ccc(-c4ccc(OC)cc4)c(OC)c3)N[C@@](C)(C(=O)OC)[C@H]2C1=O | inactive: -7.69% | 
CCCC(C(=O)NCC1CCCO1)N(Cc1ccco1)C(=O)CNS(=O)(=O)c1ccc(F)cc1 (stereo not given) |  | active: 15 µM
COc1cccc(NC(=O)Nc2ccc3nsnc3c2)c1 |  | inconclusive: 23.8 µM [inhibitor, single point]
COc1ccc(CC(=O)NNc2ncnc3c2cnn3Cc2ccccc2)cc1OC |  | active: 26.7 µM
O=C(Oc1ccccc1-c1csnn1)c1cccs1 | inconclusive: -31.9% [inhibitor] | 
Cc1ccccc1OCC(=O)N/N=C1\SCC(=O)N1Cc1ccccc1 |  | active: 26.7 µM

In another format: 4 of the compounds above

| Structure (SMILES) | max response, negative = inhibition | Potency |
| --- | --- | --- |
| COC(=O)c1ccc(Cn2nc(C)cc2C)cc1 |  | inconclusive: 37.7 µM [inhibitor, single point] |
| COc1ccc(C(=O)C2CCCN(C/C=C/c3ccccc3OC)C2)c(OC)c1 (stereo not given) | inactive: -7% |  |
| O=C(NS(=O)(=O)c1ccc2ccc(S(=O)(=O)NCCSc3ccccc3)cc2c1)c1cccc2ccccc12 |  | inconclusive: 37.7 µM [inhibitor, single point] |
| CCOCC(=O)Nc1ncc(S(=O)(=O)c2ccc([N+](=O)[O-])cc2)s1 |  | inconclusive: 21.2 µM [inhibitor, single point] |
